Assay results published in article PMC11294482.
These are yes or no findings as the source states them, for the method shown. Binding seen in cells or lysates may run through a third protein. Some binding calls cover weakened binding; strength is not graded here.

Protein sequences, listed by entry. Tags and fused reporters are not part of them.
UniProt P08670: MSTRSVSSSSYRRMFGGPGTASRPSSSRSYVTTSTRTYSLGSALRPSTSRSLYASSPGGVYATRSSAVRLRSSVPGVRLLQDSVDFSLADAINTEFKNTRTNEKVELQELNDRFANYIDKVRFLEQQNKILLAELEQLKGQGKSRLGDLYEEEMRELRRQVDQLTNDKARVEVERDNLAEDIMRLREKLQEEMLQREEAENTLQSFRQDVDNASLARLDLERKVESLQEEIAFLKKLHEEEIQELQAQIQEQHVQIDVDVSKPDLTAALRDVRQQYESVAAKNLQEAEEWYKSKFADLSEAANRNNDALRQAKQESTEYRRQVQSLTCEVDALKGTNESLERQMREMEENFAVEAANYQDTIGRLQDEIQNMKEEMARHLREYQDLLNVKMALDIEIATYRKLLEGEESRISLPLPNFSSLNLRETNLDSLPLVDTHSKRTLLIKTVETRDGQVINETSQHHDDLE

T1: XRCC2 (human (endogenous in A549)) (UniProt O43543)
T1 sequence: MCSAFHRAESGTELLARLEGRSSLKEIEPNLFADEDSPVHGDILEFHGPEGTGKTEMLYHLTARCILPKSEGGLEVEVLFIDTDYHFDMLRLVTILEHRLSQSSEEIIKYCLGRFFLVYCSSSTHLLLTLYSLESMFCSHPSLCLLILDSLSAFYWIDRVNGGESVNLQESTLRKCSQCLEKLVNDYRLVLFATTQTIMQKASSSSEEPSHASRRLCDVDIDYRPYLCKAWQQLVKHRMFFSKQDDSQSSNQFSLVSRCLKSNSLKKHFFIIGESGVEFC


Tests used:
[1] = molecular target: T1, XRCC2 (human (endogenous in A549)); experiment: co-IP; A549 cell lysate, antibody to XRCC2 or to vimentin (IgG as control) overnight at 4 °C, magnetic beads, Western blot
[2] = molecular target: vimentin (human (endogenous in A549)) (UniProt P08670); experiment: as above

Row | binding [1] | binding [2] | Molecule
1 | binds | – | vimentin (from UniProt P08670 1-466)
2 | – | binds | XRCC2 (protein, UniProt O43543 1-280) MCSAFHRAESGTELLARLEGRSSLKEIEPNLFADEDSPVHGDILEFHGPEGTGKTEMLYHLTARCILPKSEGGLEVEVLFIDTDYHFDMLRLVTILEHRLSQSSEEIIKYCLGRFFLVYCSSSTHLLLTLYSLESMFCSHPSLCLLILDSLSAFYWIDRVNGGESVNLQESTLRKCSQCLEKLVNDYRLVLFATTQTIMQKASSSSEEPSHASRRLCDVDIDYRPYLCKAWQQLVKHRMFFSKQDDSQSSNQFSLVSRCLKSNSLKKHFFIIGESGVEFC
